Assay results reported in the supplement of paper PMC10849652.
Some of the results follow.

By UniProt entry, the sequences of proteins in these tests, tags left out. Where a name states a change or a piece, a line headed by the entry shows the natural chain unless it says otherwise.
UniProt O15498: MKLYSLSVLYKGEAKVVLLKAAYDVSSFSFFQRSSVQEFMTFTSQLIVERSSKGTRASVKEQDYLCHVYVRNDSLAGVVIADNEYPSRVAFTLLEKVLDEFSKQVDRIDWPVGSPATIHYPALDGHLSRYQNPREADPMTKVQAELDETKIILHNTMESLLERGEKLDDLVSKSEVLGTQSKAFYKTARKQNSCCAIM
UniProt O60293: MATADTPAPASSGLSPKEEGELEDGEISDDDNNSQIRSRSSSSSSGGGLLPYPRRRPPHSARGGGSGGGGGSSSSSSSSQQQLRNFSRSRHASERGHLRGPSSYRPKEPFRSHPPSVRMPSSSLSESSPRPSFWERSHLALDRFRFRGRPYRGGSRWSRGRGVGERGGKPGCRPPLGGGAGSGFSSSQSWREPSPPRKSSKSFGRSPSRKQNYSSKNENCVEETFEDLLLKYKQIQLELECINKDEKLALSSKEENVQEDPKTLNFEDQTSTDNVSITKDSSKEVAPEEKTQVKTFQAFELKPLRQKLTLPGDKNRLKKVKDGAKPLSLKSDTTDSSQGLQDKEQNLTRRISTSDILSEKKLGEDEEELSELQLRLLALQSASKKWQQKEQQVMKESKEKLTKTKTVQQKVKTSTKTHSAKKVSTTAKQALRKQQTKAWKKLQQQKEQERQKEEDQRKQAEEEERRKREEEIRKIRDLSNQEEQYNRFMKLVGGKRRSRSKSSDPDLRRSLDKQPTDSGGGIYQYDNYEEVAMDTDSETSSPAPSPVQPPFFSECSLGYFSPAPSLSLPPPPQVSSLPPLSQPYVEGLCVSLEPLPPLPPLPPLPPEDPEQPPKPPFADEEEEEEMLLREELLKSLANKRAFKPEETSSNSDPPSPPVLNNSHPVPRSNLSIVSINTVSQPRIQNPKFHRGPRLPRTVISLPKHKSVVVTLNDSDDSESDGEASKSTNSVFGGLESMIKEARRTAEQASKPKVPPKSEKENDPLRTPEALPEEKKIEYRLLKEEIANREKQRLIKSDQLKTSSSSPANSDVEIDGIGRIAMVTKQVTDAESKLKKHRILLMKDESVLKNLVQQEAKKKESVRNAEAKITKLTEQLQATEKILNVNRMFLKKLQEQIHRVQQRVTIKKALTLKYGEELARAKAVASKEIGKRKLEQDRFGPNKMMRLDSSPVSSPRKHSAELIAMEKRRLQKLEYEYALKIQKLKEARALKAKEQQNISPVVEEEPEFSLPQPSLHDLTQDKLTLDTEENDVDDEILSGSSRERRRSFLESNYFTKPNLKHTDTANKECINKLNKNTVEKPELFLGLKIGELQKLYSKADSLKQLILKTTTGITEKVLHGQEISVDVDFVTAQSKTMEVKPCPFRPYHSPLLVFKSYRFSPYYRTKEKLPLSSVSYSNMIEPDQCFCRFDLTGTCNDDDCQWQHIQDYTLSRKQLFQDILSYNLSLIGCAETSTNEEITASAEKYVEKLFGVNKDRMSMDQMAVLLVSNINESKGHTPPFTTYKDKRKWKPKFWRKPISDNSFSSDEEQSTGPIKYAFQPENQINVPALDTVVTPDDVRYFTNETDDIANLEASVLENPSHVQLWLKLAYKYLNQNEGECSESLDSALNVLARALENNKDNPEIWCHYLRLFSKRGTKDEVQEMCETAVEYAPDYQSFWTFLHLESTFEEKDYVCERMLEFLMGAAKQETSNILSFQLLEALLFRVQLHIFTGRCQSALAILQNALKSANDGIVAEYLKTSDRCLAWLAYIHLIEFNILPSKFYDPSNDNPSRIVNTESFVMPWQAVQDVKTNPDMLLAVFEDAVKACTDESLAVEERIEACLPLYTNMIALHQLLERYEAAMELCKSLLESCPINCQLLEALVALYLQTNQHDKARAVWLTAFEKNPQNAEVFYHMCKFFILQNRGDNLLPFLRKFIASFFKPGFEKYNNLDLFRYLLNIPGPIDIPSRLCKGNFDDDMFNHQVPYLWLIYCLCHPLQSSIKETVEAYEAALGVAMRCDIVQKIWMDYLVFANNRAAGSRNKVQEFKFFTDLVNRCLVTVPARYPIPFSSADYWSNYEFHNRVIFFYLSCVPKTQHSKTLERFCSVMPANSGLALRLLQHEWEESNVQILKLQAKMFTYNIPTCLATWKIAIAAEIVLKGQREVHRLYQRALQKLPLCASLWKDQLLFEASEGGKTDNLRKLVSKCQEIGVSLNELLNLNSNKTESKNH
UniProt O43167: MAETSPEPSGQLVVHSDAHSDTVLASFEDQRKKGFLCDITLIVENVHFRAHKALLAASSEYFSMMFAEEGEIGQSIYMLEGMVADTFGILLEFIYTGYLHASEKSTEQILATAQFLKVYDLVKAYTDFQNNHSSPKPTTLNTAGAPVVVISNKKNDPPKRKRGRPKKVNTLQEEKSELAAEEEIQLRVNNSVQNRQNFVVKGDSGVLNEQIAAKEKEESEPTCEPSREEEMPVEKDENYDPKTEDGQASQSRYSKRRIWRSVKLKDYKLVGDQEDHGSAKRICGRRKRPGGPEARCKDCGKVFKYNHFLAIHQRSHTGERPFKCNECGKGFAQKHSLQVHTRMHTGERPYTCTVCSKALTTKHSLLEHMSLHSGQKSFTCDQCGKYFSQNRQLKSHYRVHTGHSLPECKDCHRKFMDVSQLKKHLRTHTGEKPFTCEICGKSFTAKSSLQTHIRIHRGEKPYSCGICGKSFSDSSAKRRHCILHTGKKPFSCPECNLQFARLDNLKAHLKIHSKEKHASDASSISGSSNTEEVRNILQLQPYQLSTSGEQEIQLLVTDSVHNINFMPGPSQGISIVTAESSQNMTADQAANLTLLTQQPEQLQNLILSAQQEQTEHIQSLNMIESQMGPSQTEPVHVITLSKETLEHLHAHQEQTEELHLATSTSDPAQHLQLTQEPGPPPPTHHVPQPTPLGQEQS
UniProt P18887, whole entry, looked up: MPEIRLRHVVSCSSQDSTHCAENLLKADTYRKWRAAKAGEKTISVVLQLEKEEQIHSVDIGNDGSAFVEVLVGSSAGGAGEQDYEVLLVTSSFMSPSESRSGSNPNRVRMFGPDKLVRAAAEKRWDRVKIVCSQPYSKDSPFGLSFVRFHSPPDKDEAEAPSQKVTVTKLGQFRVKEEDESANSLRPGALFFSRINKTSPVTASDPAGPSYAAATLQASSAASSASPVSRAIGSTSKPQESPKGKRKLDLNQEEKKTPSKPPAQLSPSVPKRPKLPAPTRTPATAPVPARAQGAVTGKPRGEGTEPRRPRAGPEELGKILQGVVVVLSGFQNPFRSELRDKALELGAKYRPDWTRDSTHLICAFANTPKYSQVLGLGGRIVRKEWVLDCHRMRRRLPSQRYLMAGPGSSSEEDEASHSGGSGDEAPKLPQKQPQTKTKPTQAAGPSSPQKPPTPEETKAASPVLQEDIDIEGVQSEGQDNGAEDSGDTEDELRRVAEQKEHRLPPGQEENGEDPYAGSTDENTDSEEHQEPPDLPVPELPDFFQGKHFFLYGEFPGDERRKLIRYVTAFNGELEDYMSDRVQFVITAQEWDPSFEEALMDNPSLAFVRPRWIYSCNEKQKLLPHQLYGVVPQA
UniProt P62699: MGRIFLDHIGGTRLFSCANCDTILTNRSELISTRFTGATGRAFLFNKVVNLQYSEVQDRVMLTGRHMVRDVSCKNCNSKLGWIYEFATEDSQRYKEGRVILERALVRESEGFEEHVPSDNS
UniProt Q5VVQ6: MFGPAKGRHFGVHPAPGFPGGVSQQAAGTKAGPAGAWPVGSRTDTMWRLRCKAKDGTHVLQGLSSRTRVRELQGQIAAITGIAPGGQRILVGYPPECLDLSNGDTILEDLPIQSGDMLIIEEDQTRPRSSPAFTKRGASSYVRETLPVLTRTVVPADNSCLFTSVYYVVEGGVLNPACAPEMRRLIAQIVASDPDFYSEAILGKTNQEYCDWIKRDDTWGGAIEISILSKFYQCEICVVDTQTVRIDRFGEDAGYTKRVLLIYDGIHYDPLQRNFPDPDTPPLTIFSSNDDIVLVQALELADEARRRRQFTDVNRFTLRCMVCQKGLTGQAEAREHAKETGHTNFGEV
UniProt Q8IY57: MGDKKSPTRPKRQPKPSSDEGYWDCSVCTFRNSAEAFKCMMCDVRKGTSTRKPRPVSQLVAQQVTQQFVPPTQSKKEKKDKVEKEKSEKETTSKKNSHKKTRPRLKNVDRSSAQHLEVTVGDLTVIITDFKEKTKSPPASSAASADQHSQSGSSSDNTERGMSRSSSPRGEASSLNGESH
UniProt Q5W0Z9: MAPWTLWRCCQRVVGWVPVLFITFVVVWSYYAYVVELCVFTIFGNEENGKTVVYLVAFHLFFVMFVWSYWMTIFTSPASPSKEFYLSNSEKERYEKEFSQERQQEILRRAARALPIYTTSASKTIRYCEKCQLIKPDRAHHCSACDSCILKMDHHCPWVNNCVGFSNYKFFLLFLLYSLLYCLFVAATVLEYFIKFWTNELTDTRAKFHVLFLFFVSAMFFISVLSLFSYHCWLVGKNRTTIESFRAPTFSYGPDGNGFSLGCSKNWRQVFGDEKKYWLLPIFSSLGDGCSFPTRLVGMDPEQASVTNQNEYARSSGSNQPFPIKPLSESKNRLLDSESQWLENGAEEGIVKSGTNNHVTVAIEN
UniProt Q9BYJ9: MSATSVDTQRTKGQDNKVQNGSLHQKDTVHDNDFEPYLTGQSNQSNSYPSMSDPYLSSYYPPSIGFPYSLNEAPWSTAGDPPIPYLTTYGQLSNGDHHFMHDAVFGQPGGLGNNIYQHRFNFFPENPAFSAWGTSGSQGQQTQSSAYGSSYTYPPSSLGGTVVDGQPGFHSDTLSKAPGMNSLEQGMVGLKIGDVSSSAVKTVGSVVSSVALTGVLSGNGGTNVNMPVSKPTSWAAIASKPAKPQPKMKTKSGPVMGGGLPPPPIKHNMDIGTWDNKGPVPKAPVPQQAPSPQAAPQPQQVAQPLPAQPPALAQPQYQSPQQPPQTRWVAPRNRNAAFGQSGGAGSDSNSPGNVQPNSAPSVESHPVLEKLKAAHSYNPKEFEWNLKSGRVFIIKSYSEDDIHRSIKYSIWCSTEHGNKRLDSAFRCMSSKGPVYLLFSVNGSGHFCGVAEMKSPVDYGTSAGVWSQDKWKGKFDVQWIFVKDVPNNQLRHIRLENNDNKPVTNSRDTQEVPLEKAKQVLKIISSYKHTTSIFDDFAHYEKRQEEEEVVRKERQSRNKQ
UniProt Q8N5P1: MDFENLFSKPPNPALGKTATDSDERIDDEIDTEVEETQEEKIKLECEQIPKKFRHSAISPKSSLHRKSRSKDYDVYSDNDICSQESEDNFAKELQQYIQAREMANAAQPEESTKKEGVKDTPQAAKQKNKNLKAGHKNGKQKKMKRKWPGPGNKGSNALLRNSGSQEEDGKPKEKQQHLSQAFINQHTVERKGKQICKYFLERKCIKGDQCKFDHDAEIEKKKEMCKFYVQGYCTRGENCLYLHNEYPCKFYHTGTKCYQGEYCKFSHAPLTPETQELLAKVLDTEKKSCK
UniProt Q96QU8: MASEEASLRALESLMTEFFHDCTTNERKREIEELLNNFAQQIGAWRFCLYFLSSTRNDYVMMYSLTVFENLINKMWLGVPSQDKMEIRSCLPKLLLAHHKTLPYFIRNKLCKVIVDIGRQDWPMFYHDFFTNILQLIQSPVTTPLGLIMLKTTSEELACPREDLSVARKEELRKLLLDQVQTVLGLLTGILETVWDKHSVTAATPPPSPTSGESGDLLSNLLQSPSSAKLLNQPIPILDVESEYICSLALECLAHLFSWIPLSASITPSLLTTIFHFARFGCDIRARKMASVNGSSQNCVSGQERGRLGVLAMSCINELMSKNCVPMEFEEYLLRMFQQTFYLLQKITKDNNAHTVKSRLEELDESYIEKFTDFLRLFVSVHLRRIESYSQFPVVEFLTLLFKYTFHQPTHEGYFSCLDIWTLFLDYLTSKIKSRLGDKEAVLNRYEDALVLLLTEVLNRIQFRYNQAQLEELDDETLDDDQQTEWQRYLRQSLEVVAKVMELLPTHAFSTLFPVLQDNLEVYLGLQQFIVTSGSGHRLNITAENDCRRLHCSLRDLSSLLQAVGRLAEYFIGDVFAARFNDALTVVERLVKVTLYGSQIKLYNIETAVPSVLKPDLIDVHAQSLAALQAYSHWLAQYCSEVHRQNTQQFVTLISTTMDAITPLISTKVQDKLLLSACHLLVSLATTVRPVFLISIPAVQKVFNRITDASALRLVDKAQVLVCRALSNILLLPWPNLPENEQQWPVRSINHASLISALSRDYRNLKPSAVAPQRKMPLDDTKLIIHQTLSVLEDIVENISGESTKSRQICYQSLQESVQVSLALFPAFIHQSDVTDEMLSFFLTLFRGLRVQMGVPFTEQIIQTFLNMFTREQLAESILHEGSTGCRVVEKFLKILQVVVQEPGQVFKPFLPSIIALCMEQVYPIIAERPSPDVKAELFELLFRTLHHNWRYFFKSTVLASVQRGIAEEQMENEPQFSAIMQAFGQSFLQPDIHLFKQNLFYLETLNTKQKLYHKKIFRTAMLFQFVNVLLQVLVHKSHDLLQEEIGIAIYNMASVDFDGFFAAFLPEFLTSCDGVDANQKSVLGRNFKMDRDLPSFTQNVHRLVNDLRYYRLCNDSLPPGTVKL

What follows are targets tested with C[C@@H](Oc1cc(-c2cnn(C3CCNCC3)c2)cnc1N)c1c(Cl)ccc(F)c1Cl [crizotinib] (assay: log2 fold change, soluble protein after heating vs DMSO (PISA); higher = thermal stabilisation; K562 lysate, 10 uM; active = over 0.2 and 3.5 SD of the protein, either way, in both replicates (recomputed)).
Procedure, shortened: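 To prepare the extract, K562 pellets were dounce-homogenised in PBS pH 7.4 with 1 mM MgCl2, giving crude material at 1 mg/mL protein. This was treated with 10 μM compound for 30 min, then heated in aliquots for 3 min over 48°C-58°C before pooling and addition of NP-40 to 0.5% at 4°C. Centrifugation at 21,000xg for 90 min left soluble protein in the supernatant, which TMTpro 16plex LC-MS/MS quantified with equalised channel sums. Results are log-two fold changes in thermal stability compared with solvent controls, from duplicates.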

log2 fold change, inactive:
YKT6 (UniProt O15498) 0.059
ZFC3H1 (UniProt O60293) -0.07
ZBTB24 (UniProt O43167) -0.013
XYLB (UniProt O75191) -0.048
XPO7 (UniProt Q9UIA9) -0.012
XRCC1 (UniProt P18887) -0.01
YPEL5 (UniProt P62699) -0.132
YOD1 (UniProt Q5VVQ6) -0.023
ZBTB10 (UniProt Q96DT7) -0.056
YBX3 (UniProt P16989) -0.005
YAF2 isoform 5 (UniProt Q8IY57) -0.009
XRCC4 (UniProt Q13426) 0.086
ZFAND3 (UniProt Q9H8U3) 0.105
ZBTB8OS (UniProt Q8IWT0) 0.066
XRN1 (UniProt Q8IZH2) 0.048
ZFYVE21 isoform 2 (UniProt Q9BQ24) -0.04
ZCCHC17 (UniProt Q9NP64) -0.107
YIPF4 (UniProt Q9BSR8) -0.021
XPR1 (UniProt Q9UBH6) -0.079
YWHAQ (UniProt P27348) 0.07
ZDHHC20 (UniProt Q5W0Z9) -0.156
YTHDF1 (UniProt Q9BYJ9) 0.017
ZDHHC5 (UniProt Q9C0B5) 0.006
YIF1B (UniProt Q5BJH7) 0.025
ZC3H14 (UniProt Q6PJT7) 0.018
YLPM1 (UniProt P49750) 0.064
ZBED1 (UniProt O96006) -0.005
ZFYVE9 (UniProt O95405) -0.016
YARS2 (UniProt Q9Y2Z4) -0.022
YWHAH (UniProt Q04917) 0.084
ZC3H8 (UniProt Q8N5P1) -0.009
XPO6 (UniProt Q96QU8) -0.086
XRCC5 (UniProt P13010) -0.018
ZCCHC3 (UniProt Q9NUD5) 0.012
YTHDF3 (UniProt Q7Z739) 0.01
YME1L1 (UniProt Q96TA2) -0.073
ZC3H13 (UniProt Q5T200) -0.057
ZBTB21 (UniProt Q9ULJ3) 0.091

Already shown: an excerpt of the list.
log2 fold change, inactive:
ZDHHC20 (UniProt Q5W0Z9) -0.156
YTHDF1 (UniProt Q9BYJ9) 0.017
ZDHHC5 (UniProt Q9C0B5) 0.006
